# Results from PubChem BioAssay AID2685 (National Center for Advancing Translational Sciences (NCATS), 2010).
# About 2,100 (0.66%) of roughly 320,000 compounds were called active. The shares of active, inactive and inconclusive entries below differ from those in the screen. Calls follow the shape of the dose curve; as a rule, active = well fitted inhibition curve with a large enough effect in the signal ratio, with a control signal flat (not every such curve was filed as active); inconclusive = small, poorly fitted or top-dose-only effect, or effect the other way, or a change in a side signal; inactive = flat fitted curve, though single readings scatter; the % refers to the signal ratio. Where the call is inconclusive, the potency comes from a doubtful curve fit.
# Test: qHTS Assay for Lipid Storage Modulators in Drosophila S3 Cells
# Details: BODIPY lipid droplet fluorescence, 18-24 h, cells fed with added oleic acid; lipid storage change, negative = inhibition: at 46.1 µM (top of the series) unless noted
# How it was run: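 Drosophila S3 cells got compounds at several concentrations plus oleic acid (400 uM solution). Laser-scanning cytometry with 488 nm excitation read lipid droplets at 500-530 nm and cells at 575-640 nm. Percent activity was relative to 20 uM Triacsin C.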
# % is scaled to controls: 0 for no effect and ±100 for the full control effect; potency is read from the fitted curve at half-maximal effect.
Structure (SMILES),outcome,"lipid storage change, negative = inhibition",Potency
O=C1C(=O)N(CCCN2CCOCC2)C(c2ccc(F)cc2)/C1=C(\O)c1ccc2c(c1)OCCO2 (centres undefined),inactive [at 46.1 µM],,
CC(C)(C)c1cc(CCC(=O)NCCc2ccccn2)cc(C(C)(C)C)c1O,,inconclusive: -54%,
CCc1cc(=O)oc2cc(OCC=C(C)C)ccc12,,,"inconclusive: 6.51 µM [activator, single point]"
COCCn1c(SCC(=O)Nc2ccccc2OC)nc2ccccc2c1=O,,,"inconclusive: 6.51 µM [activator, single point]"
Cc1ccc(S(=O)(=O)Nc2cc(=O)[nH]c(SCc3ccccc3Cl)n2)cc1,,,"inconclusive: 23.1 µM [falling, single point]"
CC(NS(=O)(=O)c1ccc(Br)cc1)C(=O)NCC1CCCO1 (centres undefined),,inconclusive: 64.6%,
COc1cc(/C=N/NC(=O)CNC(=O)c2ccco2)ccc1O,,,"inconclusive: 7.31 µM [falling, full curve, poor fit]"
O=C(COC(=O)/C=C/c1ccc(OC(F)F)cc1)NC1CCCCCCC1,,inconclusive,
CCNC(=O)N1C(=O)C2(OCCO2)c2cc(Br)ccc21,,inconclusive: 51.9%,
CCc1ccc(CN2CCC(Oc3ccc(C(=O)N4CCCC4)cc3)CC2)cc1,,inconclusive: -9.8% [at 0.00295 µM],
CCOC(=O)c1c(-c2ccccc2)oc2cc(Br)c(O)cc12,,inconclusive: 34.6%,
CCn1c(/C=C/c2ccccc2Cl)nc2ccccc2c1=O,,inconclusive: 11.4%,
O=C(NC1=NCCS1)c1sc2cc(F)ccc2c1Cl,,inconclusive: -48.7%,
CCN1CCN(CCOCCOc2ccccc2)CC1,,inconclusive: 57.2%,
COc1cccc(OC)c1OCCN1CCN(C(c2ccccc2)c2ccccc2)CC1,,inconclusive: -38.4%,
Cc1ccc(S(=O)(=O)N2CCN(C(=O)COC(=O)C3(C)CC3(Cl)Cl)CC2)c(C)c1 (centres undefined),,,"inconclusive: 29.1 µM [falling, partial curve, poor fit]"
O=C(O)C(=O)/C(=C\c1ccc([N+](=O)[O-])cc1)c1ccc2ccccc2n1,,inconclusive: 32.8%,
O=C(Nc1ccc(Br)cc1)C1CCN(C(=O)c2ccco2)CC1,,inconclusive: -3.79%,
COc1ccccc1-c1nc(C(N)=O)c2[nH]c(=O)n(-c3cccc(C)c3)c2n1,,inconclusive: -2.37%,
CC1(C)NC(=O)N(CC(=O)OCC(=O)Nc2cccc(S(N)(=O)=O)c2)C1=O,,,"inconclusive: 29.1 µM [rising, single point]"
N#CC[C@H](Cc1ccccc1)N1CC[C@@H](NC(=O)OCc2ccccc2)CCC1=O,,inactive: -12.3%,
NS(=O)(=O)c1ccc(NC(=O)COC(=O)CCc2nc3ccccc3c(=O)[nH]2)cc1,,inconclusive: -5.68%,
COc1cc(OC)cc(C(=O)NCc2ccc3c(c2)OCO3)c1,,inconclusive: 9.25%,
O=C(c1ccco1)N1CCN(c2ncccn2)CC1,,inconclusive: 21.2% [at 9.22 µM],
OCCNCCCCOc1cccc(Br)c1,,inconclusive: 9.66%,
O=C(COc1ccc(Cl)cc1)NCCC1=CCCCC1,,inconclusive: 18.5%,
O=C(CN(CCO)c1ccccc1)Nc1ccc(Cl)c(S(=O)(=O)N2CCOCC2)c1,,inconclusive: 10.3%,

Structure (SMILES),outcome,"lipid storage change, negative = inhibition",Potency
Cc1ccc(S(=O)(=O)N(C)CC(=O)NCC(c2ccc(F)cc2)N2CCOCC2)cc1 (centres undefined),,,"inconclusive: 0.461 µM [activator, full curve, poor fit]"
O=C(Cc1cccs1)Nc1cccc(-c2nc3ccccc3o2)c1,,inconclusive: -29.5%,
CC(C)OC(=O)Cn1cc(C#N)c2ccccc21,,inconclusive: 29.6%,
C[n+]1ccccc1/C=C/c1ccc2ncccc2c1,,inconclusive: 7.95%,
O=C(O)c1cc(N/N=C/c2cccs2)ccc1Cl,,inconclusive: -28.5%,
COCCNC(=O)C12CC3CC(CC(Cl)(C3)C1)C2,,inactive: -8.46%,
CO/N=C/NC(=O)c1cn(-c2ccc(F)cc2)c(=O)c2ccccc12,,inconclusive: 466%,
Cc1ccc(S(=O)(=O)Cc2sc3ccccc3[n+]2C)cc1,,,"inconclusive: 4.61 µM [falling, single point]"
Cc1ccc(N(Cc2ccc([N+](=O)[O-])cc2)C(=O)c2ccco2)cc1C,,inconclusive: 11.1%,
Cc1ccc(C(=O)CS(C)(=O)=O)cc1,,inconclusive: -45.7%,
Cc1ccc(/C=N/NC(=O)CNC(=O)c2cccs2)cc1,,inconclusive: 4.37%,
O=C(NCc1ccco1)/C(=C\c1cccs1)NC(=O)c1ccsc1,,inconclusive: 5.07%,
O=C(c1ccccc1)N1CCC(CC2CC(c3cccc(Br)c3)=NO2)(C(=O)NCC2CCCCC2)CC1 (centres undefined),,inactive: -12%,
CC(=O)NCCc1ccc(S(=O)(=O)NCc2ccc3c(c2)OCO3)cc1,,,"inconclusive: 4.61 µM [activator, single point]"
O=C(CNC(=O)c1cccs1)OCC(=O)c1ccccc1,,inconclusive: 53.5%,
Cc1c(C(=O)NNC(=O)c2ccncc2)oc2ccc(Br)cc12,,inconclusive,
O=C(O)CCC(=O)OCC1CCCO1 (centres undefined),,,active: 23.1 µM
Cc1ccc(NC(=O)C(Cc2ccccc2)n2cccc2)cc1 (centres undefined),,inconclusive: 33.4%,
Cc1cccc(N2CCN(S(=O)(=O)c3ccc(-c4coc(C)n4)cc3)CC2C)c1 (centres undefined),,,"inconclusive: 0.082 µM [activator, full curve, poor fit]"
O=C(NC1CCCCC1)N1CCc2[nH]c3ccccc3c2C1,,inconclusive: -14.6%,
COc1ccc(/C=C/C(=O)NCc2ccccn2)cc1,,,"inconclusive: 29.1 µM [activator, single point]"
Cc1ccc(-c2noc(CN(C(=O)c3ccc4c(c3)OCO4)C(C)C)n2)cc1,,,"inconclusive: 29.1 µM [activator, single point]"
O=C(Nc1cc(S(=O)(=O)N2CCCCC2)ccc1Oc1ccccc1)C1=COCCO1,,inconclusive: -11.5%,
Cc1cccc(N(C(=O)Cn2nnc(-c3ccc(C)o3)n2)C(C(=O)NC2CCCC2)c2ccncc2)c1 (centres undefined),,,"inconclusive: 29.1 µM [activator, single point]"
COCCOC(=O)c1c(NC(=O)CSc2cccc[n+]2[O-])sc(C(N)=O)c1C,,inconclusive: 16.7%,
Cc1cc(NCc2ccccn2)n2ncc(-c3ccccc3)c2n1,,inconclusive: 5.52%,
CCN1CCN(c2ncc(C(=O)Nc3ccccc3C(=O)OC)c3ccccc23)CC1,,inconclusive: 40.1%,

# Another view of 2 compounds above:
Structure (SMILES) | outcome | lipid storage change, negative = inhibition | Potency
Cc1ccc(S(=O)(=O)N(C)CC(=O)NCC(c2ccc(F)cc2)N2CCOCC2)cc1 (centres undefined) |  |  | inconclusive: 0.461 µM [activator, full curve, poor fit]
O=C(Cc1cccs1)Nc1cccc(-c2nc3ccccc3o2)c1 |  | inconclusive: -29.5% | 

# Following part:

Structure (SMILES),outcome,"lipid storage change, negative = inhibition",Potency
CN(C)S(=O)(=O)N1CCC(Oc2ccc(C(=O)N3C[C@H]4CC[C@H]3C4)cc2)CC1,,inconclusive: -100%,
O=C(NCc1cccnc1)c1cn(-c2ccccc2)nc1-c1cccs1,,,"inconclusive: 1.84 µM [activator, partial curve]"
Cn1c(=O)c2c(nc(Br)n2CC(=O)C23CC4CC(CC(C4)C2)C3)n(C)c1=O,,inconclusive: 13.5%,
COc1ccc(CNC(=O)C2CCN(S(=O)(=O)c3ccc4c(c3)CC(C)N4C(C)=O)CC2)cc1 (centres undefined),,,"inconclusive: 29.1 µM [activator, single point]"
CCC(Sc1nc(=O)cc(N)n1CCc1ccccc1)C(=O)Nc1cc(C)on1 (centres undefined),,inconclusive: 6.34%,
O=C(CCS(=O)(=O)c1cccs1)NC1CCCCCC1,,inconclusive: -16.1%,
COc1ccc(C)cc1NC(=O)c1ccc2c(=O)n3c(nc2c1)CCCCC3,,,"inconclusive: 3.26 µM [falling, partial curve, poor fit]"
O=C(Cc1ccccc1[N+](=O)[O-])NC1CC1,,inconclusive: -15.3%,
CC1CCC(NC(=O)CCS(=O)(=O)c2ccc3c(c2)CC(C)N3C(=O)C2CC2)CC1 (centres undefined),,,"inconclusive: 29.1 µM [activator, single point]"
Cc1cc(C)nc(NC(=S)Nc2ccccc2)n1,,inconclusive: -20.1% [cytotoxic],
O=C(O)c1cccnc1SCCc1ccccc1,,,"inconclusive: 1.46 µM [falling, partial curve]"
Cc1cccc(NC(=O)c2cccnc2Oc2ccccc2)c1C(=O)O,,inconclusive: 11.3%,
COc1ccccc1CCNC(=O)c1ccc(C)o1,,inconclusive: 25.7%,
NCCCCC(=O)O,,inconclusive: -11.3%,
CC(=O)Nc1nc(-c2ccc3c(c2)CC(C)N3C(=O)C2CC2)c(C)s1 (centres undefined),,inconclusive: -57.1%,
COc1ccc(NC2CS(=O)(=O)CC2OC(=O)c2ccc(F)cc2)cc1 (centres undefined),,inconclusive: -0.481%,
O=C(Nc1ccc(C(=O)NC2CCCCC2)cc1)c1cccnc1,,inconclusive: -0.527%,
Nc1nc(SCc2ccccc2)c2[nH]cnc2n1,,inconclusive: 27.4%,
Cc1ccc(C(=O)Nc2ccc(N3CCOCC3)cc2N2CCOCC2)cc1,,,"inconclusive: 11.6 µM [cytotoxic, single point]"
Cc1ccccc1C(=O)N1CCCC(CCC(=O)N2CCN(c3ccccn3)CC2)C1 (centres undefined),,inconclusive: -29%,
Cc1cccc(OCC(=O)NCCNC(=O)c2cnccn2)c1,,,"inconclusive: 18.4 µM [activator, single point]"
O=C(CSc1nnc(SCc2ccc(Cl)cc2)s1)N1CCN(C(=O)c2ccco2)CC1,,inconclusive: -30%,
Cc1cc(NC(=O)CCCN2C(=O)c3cccnc3C2=O)ccc1Br,,,"inconclusive: 0.82 µM [falling, full curve]"
CN(C)S(=O)(=O)c1cccc(-c2nnc(SCCNCCO)n2-c2ccc(F)cc2)c1,,inconclusive: -55.2%,
COc1ccc(C2CC2C(C)=O)cc1 (centres undefined),,,"inconclusive: 0.461 µM [falling, full curve, poor fit]"

# Four entries picked at random from the list so far, as already listed:
Structure (SMILES),outcome,"lipid storage change, negative = inhibition",Potency
COc1ccc(/C=C/C(=O)NCc2ccccn2)cc1,,,"inconclusive: 29.1 µM [activator, single point]"
CCc1cc(=O)oc2cc(OCC=C(C)C)ccc12,,,"inconclusive: 6.51 µM [activator, single point]"
Nc1nc(SCc2ccccc2)c2[nH]cnc2n1,,inconclusive: 27.4%,
OCCNCCCCOc1cccc(Br)c1,,inconclusive: 9.66%,
